PMC3784504
These are yes or no findings as the source states them, for the method shown. In cells and extracts the contact can be indirect. For some assays here: A result given as binding can be weak or reduced; the word gives no strength. For some assays here: Where a sequence is shown, tags or fusion partners need not be part of it. One block for each binder: values may come before it.

How the values were obtained:
[1] = target: cohesin subunit stromalin (SA) (Drosophila (endogenous in embryos and S2 cells)); assay: co-IP; IPs of NAP1 and SA from pooled high molecular weight S-300 fractions 12-14 (about 1.5 MDa) of embryo nuclear extract; immunoblot
[2] = target: cohesin subunit stromalin (SA) (Drosophila (endogenous in embryos and S2 cells)); assay: condition: only S2 cell extracts denatured by 6M Urea; co-IP; denaturing IP of SA: S2 cells lysed in 6M Urea, 150 mM NaCl, 5 mM DTT, 50 mM Tris pH 7.6, step-wise dialysis to 2M urea, then HEMG/400; immunoblot
[3] = target: cohesin subunit stromalin (SA) (Drosophila (endogenous in embryos and S2 cells)); assay: co-IP; IP of SA, NAP1 or PP2A from Drosophila embryo nuclear extract; washes with 600 mM KCl, 0.1% NP40; immunoblot; mock IP with pre-immune serum
[4] = target: cohesin subunit stromalin (SA) (Drosophila (endogenous in embryos and S2 cells)); assay: co-IP; IP of SA or SMC1 from S2 cell extracts; cells mock-treated or depleted of NAP1 and/or PP2A by RNAi, with or without colchicine; immunoblot
[5] = target: cohesin subunit stromalin (SA) (Drosophila (endogenous in embryos and S2 cells)); assay: co-IP; IP of SA or PP2A from Drosophila embryo nuclear extract; lower stringency washes, 200 mM KCl, 0.1% NP40; immunoblot

- binding [1]: binds
- binding [2]: no binding
B1: cohesin subunit SMC1 (protein, UniProt Q9VCD8 1-1238)
chain: MTEEDDDVAQRVATAPVRKPDDETAFLEYIEMENFKSYRGHIVVGPLKQFNAVIGPNGSGKSNFMDAISFVMGEKTSSLRVKRLNDLIHGSSIGKPVSRSCYVTAKFVLNEERHMDFQRAVIGGSSEYRINGESVSSSTYLNKLEKIGINVKAKNFLVFQGAVENIAMKTPKERTALFEEISGSGLLKDDYNRLKQEMIVAEEETQFTYQKKKGIAAERKEAKHEKMEADRYTRLQNEYNEKQVEYQLFRLFHVERDIRKFTSDLEVRQQEVKAVEQRKEAADEILREKKKDAGKITRDLAKIDQEIREFETQMNKRRPLYIKAKEKVTHCKKKLISLQKTLETAREADNAHQSDIRKLEKQLADVEALKKRFEDEIENESQRRGKSVNMEEGLVQEYDRLKQEAEATATQYRSELDSVNREQKSEQDTLDGETNRRASVEESFKKLTLQREEAVKRRDKLMDHIKSSQAALEEQNRIKDELRRDVGTSKEKIAEKQRELEDVRDQLGDAKSDKHEDARRKKKQEVVELFKKQVPGVYDRMINMCQPTHKRYNVAVTKVLGKFMEAIIVDTEKTARHCIQILKEQMLEVETFLPLDYLQVKPLKERLRNISDPRNVRLVFDVLKFEPQEIERAVLFATGNALVCETPEDAMKVAYEIDRSRFDALALDGTFYQKSGLISGGSHDLARKAKRWDEKHMAQLKMQKERLQEELKELVKKSRKQSELATVESQIKGLENRLKYSMVDLESSKKSISQYDNQLQQVQSQLDEFGPKILEIERRMQNREEHIQEIKENMNNVEDKVYASFCRRLGVKNIRQYEERELVMQQERARKRAEFEQQIDSINSQLDFEKQKDTKKNVERWERSVQDEEDALEGLKLAEARYLKEIDEDKEKMEKFKQDKQAKKQAVDDMEEDISKARKDVANLAKEIHNVGSHLSAVESKIEAKKNERQNILLQAKTDCIVVPLLRGSLDDAVRQSDPDVPSTSAAMENIIEVDYSSLPREYTKLKDDSAFKKTHEMLQKDLQSKLDVLERIQTPNMKALQKLDAVTEKVQSTNEEFENARKKAKRAKAAFERVKNERSSRFVACCQHISDAIDGIYKKLARNEAAQAYIGPDNPEEPYLDGINYNCVAPGKRFQPMNNLSGGEKTIAALALLFSTHSFHPAPFFVLDEIDAALDNTNIGKVASYIRDHTTNLQTIVISLKEEFYGHADALVGITPGEGDCLVSNVYIMDLTTFEDT

- binding [3]: no binding
- binding [5]: no binding
B4: MeiS332 (protein, UniProt Q24141 1-401)
chain: MGSKVEQQYKLLNAELMDQVQKQRLEIGEYRKRVISLEREIMDIREEHVLQNHRQRMENISIVRSLMLSLNVDSDSLAVRQEPAPAAQINRPSGPRRSSREICKDMRRTCALARTTRPISPRRSSSVTSTVSSTSRRSSAEVQSEVVTTRIPEDRRANKPTPPPRRPAELVFDEDDSDDDFDEAVSPVEETQTEQNEENNRLFSIIEENGSEGESTDSSSSCEAIYCDTTFESSPPNAQVTVTPSGRALREVDTNIPVAVSLSRGKETGKGSWLAISVAVEDSPQEPSIQCPRLAVTRPSQSSGIFPDVNGLTPRRSLFNGIGKMAGSTSTPKSFLVEEMPSIRTRSRTAANKKSENTDMSSSFCNNSARPSRSCRPTSLVEPSLKNKLRNGSKGKAKAKK

Second part, the binder before the results:

B2: histone chaperone ASF1 (protein, UniProt Q9V464 1-218)
chain: MAKVHITNVVVLDNPSSFFNPFQFELTFECIEELKEDLEWKMIYVGSAESEEHDQVLDTIYVGPVPEGRHIFVFQADPPDVSKIPEPDAVGVTIVLLTCSYRGQEFVRVGYYVNNDYADPEMRENPPTKPLFEKLTRNILASKPRVTRFKINWDYGHINGNGNGVENGHQDEMATDGPSTSEAASAVIHPEDDNSLAMPMENGIKALNENSNSLAMEC
- binding [3]: no binding

B3: histone chaperone NAP1 (protein, UniProt Q9W1G7 1-370)
chain: MDAPAEGHVDPESCNEIEDEKSGSDCQSMPAYMNSVMRRQYLQQMVKMLPAPVQNRIVFLKNLQLQHLNIEAQFFEDVYKLEQKYQVQYQPLFDKRREIIEGKVDPAEEKPQWKEPESSTDNEADAEHFREALSSLKSIPKDAKGIPGFWLTVFRNTAIMSEMVQPHDEPAIRKLIDISIKYDNGHSYTLEFHFDKNEYFSNSVLTKQYVLKSTVDPNDPFAFEGPEIYKCTGCTINWEKKMNLTVKTIRKKQKHKERGAVRTIVKQVPTDSFFNFFSPPEVPSDQEEVDDDSQQILATDFEIGHFLRARIIPKAVLYYTGDIVDDEDDEDEEEYDENEEDEYDDDDAPPPKGPKSAGIKKQSPNDCPNQ
- binding [3]: binds
- binding [2]: no binding
- binding [4]: binds
